Reference: PubChem BioAssay AID686943 (Drosophila RNAi Screening Center, 2013)

- Test: 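Search across the genome for regulators of signalling from receptor tyrosine kinase to ERK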 (primary screen)
- Cells: Drosophila S2R+ haemocyte-like cells expressing YFP-tagged ERK (Rolled)
- Reagents: long dsRNA against Drosophila genes
- Treatment: insulin stimulation versus unstimulated cells; dose and duration not given
- Read-out: 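Per-plate z-scores of phospho-ERK immunostaining normalised to YFP-tagged ERK, measured with and without insulin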
- Reading the numbers: replicate 1, z-score of dpERK with insulin and replicate 2, z-score of dpERK with insulin: higher = more active ERK per ERK-YFP after insulin
The deposit covers about 23,000 reagents; below is an unselected part of those with a known target gene and a result. 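Extra replicates exist only for a retested subset of genes; insulin dose and duration not given; both raised and lowered dpERK matter.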 Reagents against one gene are numbered here. Names joined by + are all predicted targets of the reagent. Further read-outs or replicates are left out here. The record does not give: the amount of reagent, the time to read-out.

| Gene | reagent | replicate 1, z-score of dpERK with insulin | replicate 2, z-score of dpERK with insulin |
| --- | --- | --- | --- |
| RpL28 + snoRNA:Or-CD12 | 1 | -1.46 | -0.56 |
| rst (roughest) | 1 | -0.48 | -1.47 |
| rst (roughest) | 2 | -0.12 | -0.26 |
| CG5004 | 1 | 0.09 | 0.44 |
| CG5004 | 2 | -0.66 | 1.43 |
| CG5004 | 3 | 0.39 | -5.28 |
| CG8407 | 1 | 0.88 | -2.67 |
| CG15452 | 1 | 0.28 | 0.03 |
| Taf5 (TBP-associated factor 5) | 1 | 0.82 | 0.84 |
| bnl (branchless) | 1 | -0.39 | -0.41 |
| bnl (branchless) | 2 | -1.77 | 0.43 |
| Cortactin | 1 | -0.37 | 0.1 |
| Sec10 (Secretory 10) | 1 | 0.28 | 0.09 |
| CG31937 | 1 | -0.58 | -0.49 |
| CG33490 | 1 | -1.07 | -1.42 |
| cv-c (crossveinless c) | 1 | 0.01 | 0.58 |
| cv-c (crossveinless c) | 2 | 0.78 | 0.47 |
| cv-c (crossveinless c) | 3 | -2.75 | -0.13 |
| cv-c (crossveinless c) | 4 | 0.39 | 0.25 |
| cv-c (crossveinless c) | 5 | 0.54 | 0.49 |
| cv-c (crossveinless c) | 6 | -0.18 | 0.42 |
| Hand | 1 | 0.17 | 0.92 |
| CG1265 | 1 | 0.78 | 0.64 |
| CG12481 | 1 | -0.34 | -0.22 |
| MED27 (Mediator complex subunit 27) | 1 | 0.68 | -0.16 |
| CG14257 | 1 | 0.16 | 1.42 |
| CG8188 | 1 | 0.59 | 0.7 |
| CG8635 | 1 | 0.08 | 0.05 |
| HmgZ (HMG protein Z) | 1 | 0.46 | 1.89 |
| HmgZ (HMG protein Z) | 2 | -0.79 | -0.23 |
| CG11095 | 1 | 0.86 | 0.45 |
| lncRNA:CR43421 (long non-coding RNA:CR43421) | 1 | 0.99 | -0.05 |
| Cyp4d2 (Cytochrome P450 4d2) | 1 | 0.11 | 0.19 |
| CG14565 | 1 | 0.17 | -0.23 |
| CG32111 (retired record) | 1 | 0.12 | -0.23 |
| CG8565 | 1 | 0.33 | 0.66 |
| Es2 | 1 | 0.69 | 0.59 |
| CG13458 | 1 | 0.16 | -0.12 |
| Kap3 (Kinesin associated protein 3) | 1 | 0.43 | 0.23 |
| CG6867 | 1 | 0.58 | 0.13 |
| CG14958 | 1 | -0.84 | -1.36 |
| Pop4 (POP4 ribonuclease P/MRP subunit) | 1 | -0.19 | -0.47 |
| MED10 (Mediator complex subunit 10) | 1 | 1.26 | 0.92 |
| CG34288 | 1 | -2.4 | -0.76 |
| Prosalpha5 (Proteasome alpha5 subunit) | 1 | -1.95 | -4.45 |
| CG17841 | 1 | -0.96 | -1.12 |
| red (red Malpighian tubules) | 1 | -1.96 | 0.83 |
| Vha68-3 (Vacuolar H[+] ATPase 68kD subunit 3) | 1 | 0.41 | 0.31 |
| boss (bride of sevenless) | 1 | 1.12 | -0.05 |
| Myd88 | 1 | -0.52 | 0.34 |
| CheB38b (Chemosensory protein B 38b) | 1 | -0.2 | 0.68 |
| pgc (polar granule component) | 1 | 0.09 | 0.48 |
| CG13748 | 1 | -0.26 | 0.08 |
| CG8155 | 1 | 0.25 | -0.05 |
| CG8155 | 2 | 0.77 | 1.17 |
| CG32040 | 1 | 0.24 | 0.58 |
| CG32040 | 2 | -0.29 | 0.52 |

8 entries already listed, arranged by “replicate 1, z-score of dpERK with insulin”, descending.
| Gene | reagent | replicate 1, z-score of dpERK with insulin | replicate 2, z-score of dpERK with insulin |
| --- | --- | --- | --- |
| cv-c (crossveinless c) | 2 | 0.78 | 0.47 |
| cv-c (crossveinless c) | 5 | 0.54 | 0.49 |
| cv-c (crossveinless c) | 4 | 0.39 | 0.25 |
| cv-c (crossveinless c) | 1 | 0.01 | 0.58 |
| cv-c (crossveinless c) | 6 | -0.18 | 0.42 |
| CG31937 | 1 | -0.58 | -0.49 |
| CG33490 | 1 | -1.07 | -1.42 |
| cv-c (crossveinless c) | 3 | -2.75 | -0.13 |
